{
  "source": "PubChem BioAssay AID1347076",
  "about": "(National Center for Advancing Translational Sciences (NCATS), 2019)",
  "note": "Values joined by “and” are separate entries in the source; they are usually repeats but may differ in a detail not shown here. Equal values may be shown once. The campaign covered roughly 400,000 compounds. About 13,000 (3.2%) were called active. Inconclusive means that the source gave no clear call. Such entries were picked first, then a sample of the others. The call rests on the fitted dose curve; in most records, active means well fitted cell-killing curve with a large enough effect; inconclusive means small, poorly fitted or top-dose-only effect, or effect the other way; inactive means flat fitted curve, though single readings scatter. Where the call is inconclusive, the potency comes from a doubtful curve fit. On the % scale 0 is the no-effect control and ±100 the full control effect; potency means the concentration at half of the fitted maximal effect.",
  "data": [
    {"assay": "qHTS assay for MDR1-selective chemotherapeutics: Primary screen using the drug-selected MDR subline cells KB-V1; further: nearly all actives have a fitted effect of over 60% in size", "conditions": "KB-V1 MDR cells viability, CellTiter-Glo, 72 h; activity change, negative = cytotoxicity: at 46.1 µM (top of the series)", "procedure,_shortened": "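Cells of the MDR subline KB-V1 are plated, dosed with compound at multiple concentrations, and incubated 72 h at 37 degrees C; CellTiter-Glo is then added and luminescence read after 10 min.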", "values": [
      {"compound": "CCOC(=O)c1ccc(Nc2nc3ccc(C(=O)c4ccccc4)cc3n3c(C)nnc23)cc1", "Potency": "inconclusive: 18.4 µM [rising, single point]"},
      {"compound": "O=c1c2ccccc2n(Cc2ccccc2Cl)c(=O)n1CCc1ccccc1", "Potency": "inconclusive: 23.1 µM [cytotoxic, single point]"},
      {"compound": "FC(F)(F)c1cc(Oc2ccc(Cl)cc2)nc(-c2ccccn2)n1", "Potency": "inconclusive: 32.6 µM [cytotoxic, single point]"},
      {"compound": "CCCn1c(=N)n(CC(=O)c2cccs2)c2ccccc21", "activity change, negative = cytotoxicity": "inactive: -12.7%"},
      {"compound": "COc1cccc(NC(=O)CSC2=Nc3ccccc3C3=NC(CCC(=O)NCCc4ccccc4)C(=O)N23)c1", "note": "(stereo not drawn)", "activity change, negative = cytotoxicity": "inactive: 2.55%"},
      {"compound": "COc1cccc(/C=C2\\SC(=S)N(CCC(=O)N3CCCCC3CCO)C2=O)c1", "note": "(stereo not drawn)", "Potency": "inconclusive: 20.6 µM [cytotoxic, single point]"},
      {"compound": "Cc1cccc(NC(=O)c2ccc3nc(C(C)C)oc3c2)c1C", "Potency": "inconclusive: 13 µM [cytotoxic, partial curve]"},
      {"compound": "COc1ccc(NC(=O)c2cccc(-n3c(C)ccc3C)c2)c(OC)c1", "Potency": "inconclusive: 23.1 µM [cytotoxic, single point]"},
      {"compound": "Cc1ccc(Nc2nc(CSc3nnc(-c4ccncc4)n3C)cs2)cc1", "Potency": "inconclusive: 20.6 µM [cytotoxic, single point]"},
      {"compound": "C=CCN1C(=O)C(O)(CC(=O)c2ccc(OC)cc2OC)c2cc(Br)ccc21", "note": "(stereo not drawn)", "Potency": "inconclusive: 5.8 µM [cytotoxic, full curve]"},
      {"compound": "S=c1nc(C2CCCCC2)[nH][nH]1", "activity change, negative = cytotoxicity": "inactive: -10.1%"},
      {"compound": "COc1cc(Cl)c(NC(=O)CCS(=O)(=O)c2ccc3c(c2)NC(=O)CO3)c(OC)c1", "Potency": "inconclusive: 29.1 µM [rising, single point]"},
      {"compound": "Cc1cc(N2CCOCC2)nc(N2CCOCC2)c1C#N", "Potency": "active: 7.31 µM"},
      {"compound": "CC(OC(=O)Cn1[nH]c(=O)c2ccccc2c1=O)C(=O)c1ccccc1", "note": "(stereo not drawn)", "Potency": "inconclusive: 23.1 µM [rising, single point]"},
      {"compound": "Clc1ccccc1CN1CCC(Cc2ccccc2)CC1", "activity change, negative = cytotoxicity": "inactive: -21%"},
      {"compound": "COc1ccc(-c2cc(C(=O)NCCc3ccccc3)c3c(-c4ccccc4)[nH]nc3n2)cc1OC", "activity change, negative = cytotoxicity": "inactive: 7.96%"},
      {"compound": "Cc1ccc(NC(=O)C2CCCN(S(=O)(=O)c3ccc4c(c3)oc(=O)n4C)C2)cc1Cl", "note": "(stereo not drawn)", "activity change, negative = cytotoxicity": "inactive: 1.23%"},
      {"compound": "CCOc1ccc(NC(=O)C(=O)c2cc(C)n(-c3cc(C)cc(C)c3)c2C)cc1", "activity change, negative = cytotoxicity": "inactive: 11.3%"},
      {"compound": "O=C1c2ccccc2C(O)(c2ccccc2)N1CCc1ccccc1", "note": "(stereo not drawn)", "Potency": "inconclusive: 20.6 µM [cytotoxic, single point]"},
      {"compound": "COC(=O)C1=NN(c2ccc(C)cc2)C2C(=O)N(c3ccccc3OC)C(=O)C12", "note": "(stereo not drawn)", "Potency": "inconclusive: 4.11 µM [rising, partial curve]"},
      {"compound": "COc1ccc(CCNC(=O)c2ccc3c(c2)CCN3S(=O)(=O)c2ccc(C)cc2)cc1", "Potency": "inconclusive: 0.0046 µM [rising, full curve, poor fit]"},
      {"compound": "O=C(CSc1nc2c(sc3ccccc32)c(=O)n1CCCN1CCCC1)NCc1ccccc1", "activity change, negative = cytotoxicity": "inconclusive: -34.5% [cytotoxic]"},
      {"compound": "CCN(CC)P(=O)(Nc1ccc(C)cc1Br)c1ccc(N(C)C)cc1NC(=O)c1ccco1", "note": "(stereo not drawn)", "Potency": "active: 18.4 µM"},
      {"compound": "C=C1C[C@@H]2C[C@@H]2CN(S(=O)(=O)c2ccc(C)cc2)[C@@H]1c1ccco1", "Potency": "inconclusive: 20.6 µM [cytotoxic, single point]"},
      {"compound": "COc1cc(-c2nc3ccc4ccccc4c3c3c2CCC3)ccc1O", "Potency": "inconclusive: 32.6 µM [cytotoxic, single point]"},
      {"compound": "CC1=CC(C)(C)Nc2ccc(Cc3ccc4c(c3)C(C)=CC(C)(C)N4)cc21", "activity change, negative = cytotoxicity": "inactive: -4.23%"},
      {"compound": "Cc1ccccc1NC(=O)CCN1CCCC1", "Potency": "inconclusive: 29.1 µM [rising, single point]"},
      {"compound": "Cc1cccn2c(=O)c(/C=C(\\C#N)C(=O)NCc3ccco3)c(N3CCC(C(N)=O)CC3)nc12", "Potency": "inconclusive: 4.11 µM [cytotoxic, full curve]"},
      {"compound": "Cc1cc(Cl)ccc1OCC(=O)OCC(=O)NC1CCS(=O)(=O)C1", "note": "(stereo not drawn)", "activity change, negative = cytotoxicity": "inactive: 14%"},
      {"compound": "CCCn1c(=O)sc2cc(NC(=O)c3ccc(OC)c(Br)c3)ccc21", "activity change, negative = cytotoxicity": "inactive: -7.64%"},
      {"compound": "CCOc1ccc(NC(=O)c2c(NC(=O)CNCCN3CCOCC3)sc3c2CCC3)cc1", "activity change, negative = cytotoxicity": "inactive: -24.5%"},
      {"compound": "COc1cccc(C(C)NC(=S)NCc2ccc(F)cc2)c1", "note": "(stereo not drawn)", "activity change, negative = cytotoxicity": "inactive: -22.4%"},
      {"compound": "CC1CN(S(=O)(=O)c2ccc(C(=O)N3c4ccccc4CC3C)cc2)CC(C)O1", "note": "(stereo not drawn)", "Potency": "inconclusive: 0.461 µM [cytotoxic, full curve]"},
      {"compound": "O=C(Nc1nc(-c2ccncc2)cs1)C1c2ccccc2Oc2ccccc21", "Potency": "inconclusive: 11.6 µM [cytotoxic, partial curve, poor fit]"},
      {"compound": "O=C(Nc1cccc2ccccc12)c1ccc2sc([C@H]3C[C@H](O)[C@@H](CO)O3)nc2c1", "activity change, negative = cytotoxicity": "inactive: 4.07%"},
      {"compound": "Cc1ccc(-c2noc(CCC(=O)N3CCCc4ccccc43)n2)cc1", "Potency": "active: 23.1 µM"},
      {"compound": "CCc1nn2c(=O)cc(COC(=O)CNC(=O)COc3ccc(C)cc3)nc2s1", "activity change, negative = cytotoxicity": "inactive: 12.9%"},
      {"compound": "COc1ccc(OC)c(-c2nnc3n2N=C(c2ccc(OC)c(OC4CCCC4)c2)CS3)c1", "Potency": "active: 4.61 µM"},
      {"compound": "Cc1cc(C)c(S(=O)(=O)N2CCN(C(=O)CCOc3ccccc3C)CC2)c(C)c1", "Potency": "active: 5.17 µM"},
      {"compound": "CC(C)(C)NC(=O)C1c2ccccc2OCC(=O)N1Cc1ccccc1", "note": "(stereo not drawn)", "activity change, negative = cytotoxicity": "inactive: -33.4%"},
      {"compound": "Cc1ccc(-c2cc(-c3ccccc3)nc(N/N=C/c3cccnc3)n2)cc1", "Potency": "inconclusive: 9.2 µM [cytotoxic, partial curve, poor fit]"},
      {"compound": "Cc1ccc(NC(=O)CN2CCN(S(=O)(=O)c3ccc(C(C)C)cc3)CC2)cc1F", "Potency": "inconclusive: 32.6 µM [cytotoxic, single point]"},
      {"compound": "CCSc1nc(NCCN(C)C)c2c3c(sc2n1)COC(C)(CC)C3", "note": "(stereo not drawn)", "Potency": "inconclusive: 2.91 µM [cytotoxic, full curve]"},
      {"compound": "c1ccc(-c2ccnc3nc(N4CCN(c5ccccc5)CC4)nn23)cc1", "Potency": "inconclusive: 29.1 µM [cytotoxic, single point]"},
      {"compound": "CCN1CCN(Cc2ccc(NC(=O)c3cc(NC(=O)c4cc(-c5ccc(OC)cc5)n[nH]4)cc(OC)c3)cc2C(F)(F)F)CC1", "Potency": "active: 16.4 µM"},
      {"compound": "Cc1cc(NCCN2CCOCC2)n2nc(C)c(-c3ccc(Cl)cc3)c2n1", "Potency": "active: 23.1 µM"},
      {"compound": "OCCC1CN(Cc2c(O)ccc3ccccc23)CCN1CCc1ccccc1", "note": "(stereo not drawn)", "Potency": "inconclusive: 0.651 µM [cytotoxic, full curve, poor fit]"},
      {"compound": "CCN(CC)Cc1cc2ccccc2c2c1COC2", "Potency": "inconclusive: 29.1 µM [cytotoxic, single point]"},
      {"compound": "Cc1ccc(-c2nc(C#N)c(N3CCC(C)CC3)o2)cc1", "activity change, negative = cytotoxicity": "inactive: -2.71%"},
      {"compound": "COc1ccc(Nc2nc(N)nc(N)c2S(=O)(=O)c2ccccc2)cc1", "Potency": "inconclusive: 14.6 µM [cytotoxic, partial curve, poor fit]"},
      {"compound": "Cc1sc2nc(CN3CCOCC3)[nH]c(=O)c2c1-c1ccccc1", "Potency": "inconclusive: 23.1 µM [cytotoxic, partial curve, poor fit]"},
      {"compound": "NC(=O)C1(N2CCCCC2)CCN(CC(=O)Nc2ccccc2-c2ccccc2)CC1", "Potency": "inconclusive: 11.6 µM [cytotoxic, partial curve, poor fit]"},
      {"compound": "COc1ccccc1Nc1nc2nonc2nc1N1CCCCC1C", "note": "(stereo not drawn)", "Potency": "inconclusive: 29.1 µM [cytotoxic, single point]"},
      {"compound": "COc1ccc(CNS(=O)(=O)c2cc(CN3C(=O)c4cccnc4C3=O)ccc2OC)cc1", "Potency": "inconclusive: 20.6 µM [rising, partial curve]"},
      {"compound": "CCOC(=O)N1CCN(c2ccc([N+](=O)[O-])cc2F)CC1C", "note": "(stereo not drawn)", "Potency": "active: 23.1 µM"},
      {"compound": "CC1CCCN(CCOc2cccc(Oc3ccccc3)c2)C1", "note": "(stereo not drawn)", "activity change, negative = cytotoxicity": "inactive: 18.1%"},
      {"compound": "Cc1cc(C=O)c(C)n1-c1ccc(N2CCOCC2)c([N+](=O)[O-])c1", "activity change, negative = cytotoxicity": "inactive: -8.78%"},
      {"compound": "COc1ccc(S(=O)(=O)NCC(c2ccc(F)cc2)N2CCOCC2)cc1Br", "note": "(stereo not drawn)", "Potency": "inconclusive: 0.366 µM [cytotoxic, full curve, poor fit]"},
      {"compound": "CCC(C)Sc1cccc(-c2nc3cc(C)ccn3c2NC2CCCCC2)c1", "note": "(stereo not drawn)", "Potency": "active: 16.4 µM and inconclusive: 32.6 µM [cytotoxic, single point]"},
      {"compound": "CCOc1ccccc1C(=O)NC1(C(F)(F)F)NC(=O)N(CCc2ccc(OC)c(OC)c2)C1=O", "note": "(stereo not drawn)", "Potency": "inconclusive: 6.51 µM [cytotoxic, partial curve]"},
      {"compound": "Cc1cccc(C2C=C(c3ccc(C)c(C)c3)Nc3nnnn32)c1", "note": "(stereo not drawn)", "Potency": "inconclusive: 7.31 µM [cytotoxic, partial curve, poor fit]"},
      {"compound": "Cc1cc(F)ccc1S(=O)(=O)Nc1ccc2oc3c(c2c1)CC(C)CC3", "note": "(stereo not drawn)", "Potency": "inconclusive: 32.6 µM [cytotoxic, single point]"},
      {"compound": "COc1ccccc1CN(C)CC(=O)Nc1cccc(S(=O)(=O)N2CCCCC2)c1", "Potency": "inconclusive: 16.4 µM [cytotoxic, single point]"},
      {"compound": "Cc1ccc(NC(=O)c2nc(S(=O)(=O)Cc3ccccc3F)ncc2Cl)cc1C", "Potency": "inconclusive: 29.1 µM [cytotoxic, single point]"},
      {"compound": "Cc1cc(C)cc(NC(=S)Nc2ccc(Cl)c(Cl)c2)c1", "Potency": "inconclusive: 14.6 µM [cytotoxic, single point]"},
      {"compound": "Cc1csc(NC(=O)C2CCN(S(=O)(=O)c3ccccc3)CC2)n1", "Potency": "inconclusive: 16.4 µM [cytotoxic, single point]"},
      {"compound": "COC(=O)C1(C(=O)OC)C[C@H](c2ccc(OC)cc2)N(Cc2ccccc2OC)[C@@H]1c1ccc(OC)cc1", "Potency": "inconclusive: 5.17 µM [cytotoxic, partial curve]"},
      {"compound": "O=C(/C=C/c1cccc(C(F)(F)F)c1)Nc1cccc(C(F)(F)F)c1", "Potency": "inconclusive: 20.6 µM [cytotoxic, single point]"}
    ]}
  ]
}
